Source: PMC9105102 (International Journal of Molecular Sciences, 2022)

Assay: general procedure: Fmoc solid-phase peptide synthesis; Rink-Amide MBHA resin; DIC/HOBt; HATU/DIPEA for conjugation
Details: conjugation step; for final HPLC purity: 220 nm

Substance	conjugation yield [%]	final HPLC purity [%]
GnRH-III-[2ΔHis-3D-Tic,8Lys(glutaryl-Val-Cit-PABC-Dau)]	62	≥98
PEPTIDE1{[Glp].H.W.[Lys(Bu)].H.D.W.K.P.G.[am]}|PEPTIDE2{[Glt].V.A.[PABC-Dau]}$PEPTIDE1,PEPTIDE2,8:R3-1:R3$$$V2.0	70	>99
PEPTIDE1{[Glp].H.W.[Lys(Bu)].H.D.W.K.P.G.[am]}|PEPTIDE2{[Glt].V.A.[PABC-diamine-PTX]}$PEPTIDE1,PEPTIDE2,8:R3-1:R3$$$V2.0	80	≥98
PEPTIDE1{[Glp].H.W.[Lys(Bu)].H.D.W.K.P.G.[am]}|PEPTIDE2{[Glt].V.[Cit].[PABC-Dau]}$PEPTIDE1,PEPTIDE2,8:R3-1:R3$$$V2.0	70	≥97
PEPTIDE1{[Glp].H.W.[Lys(Bu)].H.D.W.K.P.G.[am]}|PEPTIDE2{[Glt].V.[Cit].[PABC-diamine-PTX]}$PEPTIDE1,PEPTIDE2,8:R3-1:R3$$$V2.0	84	≥99
PEPTIDE1{[Glp].H.W.[Lys(Bu)].H.D.W.K.P.G.[am]}|PEPTIDE2{[Glt].[Dau]}$PEPTIDE1,PEPTIDE2,8:R3-1:R3$$$V2.0	52	≥99
PEPTIDE1{[Glp].H.W.[Lys(Bu)].H.D.W.K.P.G.[am]}|PEPTIDE2{[Glt].[diamine-PTX]}$PEPTIDE1,PEPTIDE2,8:R3-1:R3$$$V2.0	53	>98
PEPTIDE1{[Glp].[D-Tic].[Lys(Bu)].H.D.W.K.P.G.[am]}|PEPTIDE2{[Glt].[Dau]}$PEPTIDE1,PEPTIDE2,7:R3-1:R3$$$V2.0	50	≥98
PEPTIDE1{[Glp].[D-Tic].[Lys(Bu)].H.D.W.K.P.G.[am]}|PEPTIDE2{[Glt].[diamine-PTX]}$PEPTIDE1,PEPTIDE2,7:R3-1:R3$$$V2.0	65	≥99

Some peptides are written in HELM: one residue between dots, names in brackets for other building blocks, links after the first $.
